The source of these data is patent publication US20180362625A1 (COMMONWEALTH SCIENTIFIC AND INDUSTRIAL RESEARCH ORGANISATION, published 2018).

Experiment [1] concerns the target T1, IRF3 transfected into HEK293T cells (UniProt Q14653).
T1 sequence (looked up): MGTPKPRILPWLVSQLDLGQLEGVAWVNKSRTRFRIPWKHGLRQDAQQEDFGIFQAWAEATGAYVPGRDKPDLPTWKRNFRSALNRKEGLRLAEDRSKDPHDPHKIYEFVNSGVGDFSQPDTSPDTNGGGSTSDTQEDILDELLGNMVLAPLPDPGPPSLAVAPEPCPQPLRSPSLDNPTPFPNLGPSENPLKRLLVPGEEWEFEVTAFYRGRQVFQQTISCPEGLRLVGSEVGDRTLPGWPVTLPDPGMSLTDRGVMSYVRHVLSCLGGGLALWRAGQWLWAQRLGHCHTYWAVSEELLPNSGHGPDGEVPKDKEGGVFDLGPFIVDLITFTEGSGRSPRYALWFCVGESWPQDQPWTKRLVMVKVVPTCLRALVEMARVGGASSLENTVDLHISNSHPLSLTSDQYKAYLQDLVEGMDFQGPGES
As to the kind of experiment: indirect immunoprecipitation with anti-IRF3 antibody from transfected HEK293T lysates, western blot with anti-FLAG. On the technique in general: A western blot detects proteins with antibodies after separation by electrophoresis.

The target of experiment [2] is T1, IRF3 transfected into HEK293T cells. As to the kind of experiment: indirect immunoprecipitation with anti-IRF3 antibody from HEK293T cells transfected with IRF3 and C6orf106, western blot with anti-FLAG, IgG isotype as negative control.

No constants are given. Whether binding was seen depends on the method and setting. Some binding calls cover weakened binding; strength is not graded here. Sequences can lack the tags named with a protein.

B1: Flag-tagged C6orf106 (C6orf106-FLAG, expressed from pCAGGs-C6-FLAG) (other)
chain: MEGMDVDLDPELMQKFSCLGTTDKDVLISEFQRLLGFQLNPAGCAFFLDMTNWNLQAAIGAYYDFESPNISVPSMSFVEDVTIGEGESIPPDTQFVKTWRIQNSGAEAWPPGVCLKYVGGDQFGHVNMVMVRSLEPQEIADVSVQMCSPSRAGMYQGQWRMCTATGLYYGDVIWVILSVEVGGLLGVTQQLSSFETEFNTQPHRKVEGNFNPFASPQKNRQSDENNLKDPGGSEFDSISKNTWAPAPDTWAPAPDQTEQDQNRLSQNSVNLSPSSHANNLSVVTYSKGLHGPYPFGQSGDYKDDDDK
notes: Over-expressed in HeLa or HEK293T cells and tested in cell lysates by co-immunoprecipitation
Regarding B1, the binding entry in experiment [1] and in experiment [2] was “binds” each time.
